Laboratory results: PubChem BioAssay AID493246 (Drosophila RNAi Screening Center, 2011)
Aim: 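Genes fly cells need to grow and stay alive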 (primary screen). Cell system: Drosophila Kc and S2R+ cells. Knock-down reagent: long dsRNA against Drosophila genes. Read-out: 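Cell number per well after knock-down, printed as raw plate values; calls were based on per-plate z-scores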. Reading the numbers: Kc cell number and S2R+ cell number: higher = more cells remaining. Call rule: 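Counted as a hit if cell number falls by a z-score of at least 3 within its plate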.
The screen tested about 21,000 reagents; below is an unselected part of those that have a named target and a result. In the full data, 429 (2%) got an active call. 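Values are raw and not normalised between plates; calls rest on per-plate z-scores that were not deposited.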 Entries without a mark were called inactive. A plus sign joins genes that one reagent is predicted to hit. Reagent sequences are not shown. Not given: the amount of reagent, the time to read-out.

Gene	dsRNA	Kc cell number, rep 1	Kc cell number, rep 2	S2R+ cell number, rep 1	S2R+ cell number, rep 2
CG4199 (GeneID 31174)	DRSC18519	5.40e5		7.73e5	
CG6980 (GeneID 42955)	DRSC16162	1.54e6	1.52e6	1.17e6	1.22e6
CG30414 (GeneID 37705)	DRSC04372	1.74e6	1.76e6	1.20e6	1.31e6
CG7739 (GeneID 39684)	DRSC10910	1.52e6	1.52e6	1.21e6	1.44e6
Hnf4 (GeneID 44544)	DRSC01032	1.51e6	1.57e6	1.03e6	1.18e6
h-cup + Rbp	DRSC14990	1.47e6	1.50e6	1.10e6	1.12e6
clumsy (GeneID 35394)	DRSC03111	1.69e6	1.76e6	1.28e6	3.97e5
Agpat2 (GeneID 34176)	DRSC03532	1.20e6	1.27e6	5.56e5	6.38e5
comm3 (GeneID 39696)	DRSC09993	1.52e6	1.58e6	1.27e6	1.40e6
comm3 (GeneID 39696)	DRSC09994	1.57e6	1.58e6	1.18e6	1.36e6
comm3 (GeneID 39696)	DRSC09995	1.41e6	1.42e6	1.21e6	1.35e6
Mst84Dc (GeneID 40887)	DRSC12599	1.63e6	1.73e6	1.22e6	1.37e6
Ctr1B + Poxm	DRSC16245	1.54e6	1.68e6	1.16e6	1.28e6
Icmt (GeneID 39478)	DRSC09834	1.31e6	1.35e6	1.23e6	1.30e6
lbl (GeneID 42541)	DRSC16986	1.41e6	1.49e6	1.04e6	1.14e6
Drp1 (GeneID 33445)	DRSC00574	1.26e6	1.30e6	8.20e5	8.25e5
CG13917 (GeneID 38186)	DRSC08386	1.30e6	1.43e6	1.19e6	1.21e6
Ctr1C (GeneID 43668)	DRSC15089	1.42e6	1.46e6	1.04e6	1.16e6
CG4000 (GeneID 42451)	DRSC15535	1.34e6	1.30e6	9.61e5	1.10e6
CG10417 (GeneID 35492)	DRSC04846	1.50e6	1.52e6	1.05e6	1.12e6
Ser6 (GeneID 33073)	DRSC20574	1.45e6	1.50e6	1.08e6	1.17e6
CG44085 (GeneID 34732)	DRSC02922	8.55e5 (active)	9.85e5	4.57e5	5.86e5
IntS14 (GeneID 33300)	DRSC00668	1.25e6	1.37e6	9.97e5	9.82e5
Lrt (GeneID 37342)	DRSC06045	1.47e6	1.39e6	9.82e5	1.22e6
CG7083 (GeneID 38943)	DRSC11136	1.56e6	1.44e6	1.09e6	1.13e6
AttC (GeneID 36484)	DRSC06886	1.49e6	1.49e6	1.19e6	1.34e6
ItgaPS5 (GeneID 37732)	DRSC04501	1.70e6	1.80e6	1.22e6	1.30e6
CG15528 (GeneID 43575)	DRSC15065	1.58e6	1.63e6	1.09e6	1.20e6
CG14950 (retired record) (GeneID 38334)	DRSC08409	1.38e6	1.39e6	1.05e6	1.19e6
CG30484 (GeneID 36534)	DRSC05457	1.42e6	1.39e6	9.56e5	1.14e6
Rm62 (GeneID 40739)	DRSC12365	1.21e6	1.29e6	8.82e5	9.58e5
CG9986 (GeneID 43386)	DRSC16586	5.70e5		8.07e5	
GstE6 (GeneID 37111)	DRSC06676	1.56e6	1.56e6	1.10e6	1.26e6
Gad1 (GeneID 38484)	DRSC08661	9.95e5	1.14e6	9.13e5	8.93e5
CG7408 (GeneID 39991)	DRSC10841	1.30e6	1.46e6	1.38e6	1.45e6
CG3589 (GeneID 37966)	DRSC04392	1.41e6	1.53e6	1.11e6	1.25e6
Cpes (GeneID 37782)	DRSC04475	1.35e6	1.38e6	8.44e5	8.53e5
CG2533 (GeneID 32110)	DRSC19855	1.69e6	1.79e6	1.09e6	1.21e6
AstA-R2 (GeneID 43393)	DRSC14171	1.45e6	1.46e6	9.88e5	1.07e6
CG15414 (GeneID 33570)	DRSC00429	1.63e6	1.60e6	1.23e6	1.38e6
Art8 (GeneID 34528)	DRSC02530	1.51e6	1.60e6	1.21e6	1.32e6

Laid out differently: results already given
Gene | dsRNA | Kc cell number, rep 1 | Kc cell number, rep 2 | S2R+ cell number, rep 1 | S2R+ cell number, rep 2
IntS14 (GeneID 33300) | DRSC00668 | 1.25e6 | 1.37e6 | 9.97e5 | 9.82e5
Lrt (GeneID 37342) | DRSC06045 | 1.47e6 | 1.39e6 | 9.82e5 | 1.22e6
CG7083 (GeneID 38943) | DRSC11136 | 1.56e6 | 1.44e6 | 1.09e6 | 1.13e6
AttC (GeneID 36484) | DRSC06886 | 1.49e6 | 1.49e6 | 1.19e6 | 1.34e6

The list goes on:
Gene	dsRNA	Kc cell number, rep 1	Kc cell number, rep 2	S2R+ cell number, rep 1	S2R+ cell number, rep 2
CG14408 (GeneID 32407)	DRSC19595	5.27e5		7.60e5	
Bmcp (GeneID 39322)	DRSC10808	1.37e6	1.42e6	1.25e6	1.21e6
CG32170 (GeneID 317894)	DRSC09452	1.69e6	1.78e6	1.21e6	1.34e6
CG13315 (GeneID 50300)	DRSC09986	1.67e6	1.58e6	1.11e6	1.09e6
CG12994 (GeneID 50350)	DRSC19192	1.28e6	1.43e6	1.03e6	1.11e6
CG12994 (GeneID 50350)	DRSC19514	1.61e6	1.66e6	1.21e6	1.35e6
Crtp (GeneID 44276)	DRSC04604	1.66e6	1.72e6	1.24e6	1.38e6
Ntf-2 (GeneID 33078)	DRSC20552	1.44e6	1.49e6	1.03e6	1.13e6
CG33490 (GeneID 2768970)	DRSC10587	1.36e6	1.39e6	1.24e6	1.15e6
CG4597 (GeneID 38604)	DRSC10432	1.31e6	1.26e6	1.09e6	1.18e6
Dus4 (GeneID 35179)	DRSC02066	1.27e6	1.35e6	1.28e6	1.25e6
esc (GeneID 34595)	DRSC03529	1.23e6	1.28e6	1.15e6	1.23e6
muc (GeneID 34021)	DRSC02832	1.67e6	1.55e6	1.20e6	1.39e6
MCPH1 (GeneID 36272)	DRSC06309	1.35e6	1.52e6	8.18e5	1.10e6
MCPH1 (GeneID 36272)	DRSC07308	1.74e6	1.71e6	1.31e6	1.46e6
Tsp5D (GeneID 31540)	DRSC18380	1.62e6	1.56e6	1.11e6	1.23e6
CG9328 (GeneID 35344)	DRSC03203	1.02e6	1.01e6	8.14e5	6.81e5
Ttc1 (GeneID 41993)	DRSC15016	1.32e6	1.70e6	1.05e6	1.05e6
bol (GeneID 39049)	DRSC08964	1.41e6	1.46e6	1.16e6	1.30e6
bol (GeneID 39049)	DRSC10444	1.59e6	1.57e6	1.20e6	1.13e6
bol (GeneID 39049)	DRSC11329	1.54e6	1.52e6	1.24e6	1.17e6
Spn43Aa (GeneID 45041)	DRSC06117	1.53e6	1.55e6	1.12e6	1.18e6
san (GeneID 44724)	DRSC07695	1.52e6	1.57e6	1.10e6	1.21e6
dgt5 (GeneID 36364)	DRSC07280	1.45e6	1.48e6	1.09e6	1.14e6
Arr1 (GeneID 35078)	DRSC01867	1.90e6	1.87e6	1.44e6	1.58e6
pb (GeneID 40826)	DRSC12409	1.43e6	1.47e6	1.06e6	1.24e6
pb (GeneID 40826)	DRSC12629	1.24e6	1.43e6	1.16e6	1.26e6
CG31337 (GeneID 318688)	DRSC12981	1.37e6	1.60e6	1.02e6	1.18e6
CG33299 (GeneID 2768912)	DRSC01085	1.49e6	1.57e6	1.02e6	1.17e6
CG15578 (GeneID 50379)	DRSC18066	1.58e6	1.59e6	1.03e6	1.13e6
Grip71 (GeneID 35130)	DRSC02042	1.59e6	1.76e6	1.30e6	3.82e5
CG31229 (GeneID 318636)	DRSC13309	1.29e6	1.32e6	8.66e5	9.40e5
CG32276 (GeneID 251645)	DRSC08027	1.49e6	1.33e6	1.01e6	1.19e6
CG8067 (GeneID 36552)	DRSC07065	1.37e6	1.47e6	1.14e6	1.21e6
